The results in this text go back to publication PMC6203401.

Amino acid sequences for entries named in this document (tags omitted).
UniProt Q9SEX2: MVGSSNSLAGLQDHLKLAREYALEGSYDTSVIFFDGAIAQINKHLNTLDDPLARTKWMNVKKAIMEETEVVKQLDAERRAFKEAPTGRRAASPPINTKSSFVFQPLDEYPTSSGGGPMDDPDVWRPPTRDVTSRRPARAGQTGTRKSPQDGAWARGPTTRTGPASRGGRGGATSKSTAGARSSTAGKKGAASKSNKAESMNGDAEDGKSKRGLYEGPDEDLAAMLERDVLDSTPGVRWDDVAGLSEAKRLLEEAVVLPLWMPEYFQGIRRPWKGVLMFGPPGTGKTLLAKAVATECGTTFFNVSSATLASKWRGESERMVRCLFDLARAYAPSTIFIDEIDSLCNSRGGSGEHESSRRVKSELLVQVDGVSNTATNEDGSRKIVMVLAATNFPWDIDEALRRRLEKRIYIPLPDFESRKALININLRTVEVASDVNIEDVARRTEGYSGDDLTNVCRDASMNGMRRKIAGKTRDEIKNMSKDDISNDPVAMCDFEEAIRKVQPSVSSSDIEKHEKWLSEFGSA

These are yes or no findings as the source states them, for the method shown. Binding seen in cells or lysates may run through a third protein. A yes stands for co-enrichment or nearness to the bait. Other partners may have been found. A no says only that the protein was not detected with the bait. Tags and fused reporters may be left off the sequences shown.

The assay deals with T1, GFP-AN (ANGUSTIFOLIA fused with GFP, 35S promoter), stable transgenic A. thaliana line (A. thaliana) (UniProt O23702).
T1 sequence: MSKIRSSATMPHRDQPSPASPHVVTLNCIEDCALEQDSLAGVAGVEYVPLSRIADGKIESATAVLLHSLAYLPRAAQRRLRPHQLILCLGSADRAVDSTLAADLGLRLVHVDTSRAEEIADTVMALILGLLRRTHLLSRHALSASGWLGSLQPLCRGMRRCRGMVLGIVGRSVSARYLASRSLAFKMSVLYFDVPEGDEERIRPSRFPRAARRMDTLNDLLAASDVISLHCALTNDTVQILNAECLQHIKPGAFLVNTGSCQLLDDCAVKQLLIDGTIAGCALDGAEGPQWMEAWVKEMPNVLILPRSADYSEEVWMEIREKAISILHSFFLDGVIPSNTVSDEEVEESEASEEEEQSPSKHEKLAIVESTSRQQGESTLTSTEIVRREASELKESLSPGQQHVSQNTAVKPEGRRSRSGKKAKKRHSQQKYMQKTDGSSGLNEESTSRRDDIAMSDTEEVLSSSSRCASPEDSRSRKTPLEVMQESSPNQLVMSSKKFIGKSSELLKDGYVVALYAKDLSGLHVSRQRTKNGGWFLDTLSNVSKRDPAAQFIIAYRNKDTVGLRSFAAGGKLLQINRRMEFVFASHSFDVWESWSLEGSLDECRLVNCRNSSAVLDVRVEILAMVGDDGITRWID
In words: affinity purification with mass spectrometry; GFP-Trap agarose beads on total protein extract of the 35S::GFP-AN line (rdr6-11 background), 4 °C, 4 h; 25 mM Hepes-KOH pH 7.4, 10 mM MgCl2, 100 mM NaCl, 5 mM NaF, 15% glycerol, 1% Triton X-100; control 35S::GFP line; biological triplicate; LC-MS/MS.

As for “KTN1 (katanin p60), endogenous (from UniProt Q9SEX2 1-523) (enzyme)”, the binding result is reported as “no binding”.
